Experimental findings from the supplement of paper PMC7877785 are described below.

A short description of this data set: self-splicing fitness, log relative to wild type (ln ratio); higher = more splicing; Tetrahymena group I intron in knt gene, E. coli kanamycin selection, DiMSum; sequences stand for … in CUCUCU…GGAGGGAAAAGUUAUCAGGCAUGCACCUGGUAGCUAGUCUUUAAACCAAUAGAUUGCAUCGGUUUAAAAGGCAAGACCGUCAAAUUGCGGGAAAGGGGUCAACAGCCGUUCAGUACCAAGUCUCAGGGGAAACUUUGAGAUGGCCUUGCAAAGGGUAUGGUAAUAAGCUGACGGACAUGGUCCUAACCACGCAGCCAAGUCCUAAGUCAACAGAUCUUCUGUUGAUAUGGAUGCAGUUCACAGACUAAAUGUCGGUCGGGGAAGAUGUAUUCUUCUCAUAAGAUAUAGUCGGACCUCUCCUUAAUGGGAGCUAGCGGAUGAAGUGAUGCAACACUGGAGCCGCUGGGAACUAAUUUGUAUGCGAAAGUAUAUUGAUUAGUUUUGGAGUACUCGUGGUCG
An outline of the steps:
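A randomised library covering all eight P1ex-region intron nucleotides was built with the intron in the knt kanamycin-resistance gene on pET-22b(+) and held in E. coli BL21(DE3). Cells were grown overnight at 37°C or 30°C on LB agar, with or without 25 μg/mL kanamycin, plus 100 μg/mL carbenicillin, 50 μM IPTG and 0.2% rhamnose, and pooled colonies were amplicon-sequenced on an Illumina HiSeq 2500. DiMSum fitness is the error-weighted combination of wild-type-normalised replicate fold changes, kanamycin versus none.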

± gives the uncertainty stated by the source. Many of these values have a large error.

UCAUAGCAAUAUUACGGCGU: the “self-splicing fitness (ln)” value is -3.73 ± 0.14 (30 °C) and -3.17 ± 0.19 (37 °C).
For the sequence GUAAAGCAAUAUUACGAAAA, the “self-splicing fitness (ln)” value was -1.52 ± 0.15 (30 °C) and 0.0796 ± 0.28 (37 °C).
As to GUUGAGCAAUAUUACGGCCG, for the setting “37 °C”, the “self-splicing fitness (ln)” value was -0.44 ± 1.4.
On to CAAAAGCAAUAUUACGUUCC, for which the “self-splicing fitness (ln)” value reads like this: (30 °C) -2.34 ± 0.33; (37 °C) -2.17 ± 0.36.
Consider CUAGAGCAAUAUUACGCCGG, for which the “self-splicing fitness (ln)” value (30 °C) was -3.93 ± 0.6.
Regarding UCUAAGCAAUAUUACGACUA, the “self-splicing fitness (ln)” value (30 °C) is -3.07 ± 0.25 and the “self-splicing fitness (ln)” value (37 °C) was -0.59 ± 0.15.
For GAGGAGCAAUAUUACGCCUC, the “self-splicing fitness (ln)” value (30 °C) was -3.13 ± 0.63.
On to AUCGAGCAAUAUUACGAGGC, for which the “self-splicing fitness (ln)” value (30 °C) was -3.17 ± 0.64.
With UUCGAGCAAUAUUACGCCCG, for the setting “37 °C”, the “self-splicing fitness (ln)” value is -1.11 ± 0.73.
Regarding AAUGAGCAAUAUUACGCUGG, the “self-splicing fitness (ln)” value (30 °C) is -3.22 ± 0.2 and the “self-splicing fitness (ln)” value (37 °C) was -2.08 ± 0.25.
UCCUAGCAAUAUUACGAAAC: the “self-splicing fitness (ln)” value is, setting by setting: (30 °C) -3.46 ± 1.1; (37 °C) -0.756 ± 0.66.
On the same counts, the results for ACGUAGCAAUAUUACGGCCC are -0.341 ± 0.15 and 0.0459 ± 0.25.
Regarding CGAUAGCAAUAUUACGACAC, the “self-splicing fitness (ln)” value (37 °C) is -1.84 ± 0.81.
In the case of CGUAAGCAAUAUUACGUGAC, the “self-splicing fitness (ln)” value by setting is: (30 °C) -3.04 ± 0.15; (37 °C) -2.33 ± 0.18.
For the sequence ACGGAGCAAUAUUACGAGCA, the “self-splicing fitness (ln)” value (37 °C) is -2.71 ± 0.62.
For the sequence CAUAAGCAAUAUUACGCCGC, the “self-splicing fitness (ln)” value was -2.82 ± 0.38 (30 °C) and -1.59 ± 0.47 (37 °C).
Take UUCGAGCAAUAUUACGGUGU: under “30 °C”, the “self-splicing fitness (ln)” value is -3.68 ± 0.53.
For CAGGAGCAAUAUUACGUAGC, the “self-splicing fitness (ln)” value (30 °C) was -5.08 ± 1.
Take GAGUAGCAAUAUUACGACUC: the “self-splicing fitness (ln)” value (37 °C) is -1 ± 0.92.
With UGACAGCAAUAUUACGAAGU, the “self-splicing fitness (ln)” value was -3.26 ± 0.2 (30 °C) and -2.91 ± 0.28 (37 °C).
On to UUGGAGCAAUAUUACGCUGC, for which the “self-splicing fitness (ln)” value by setting is: (30 °C) -1.96 ± 1.2; (37 °C) -2.34 ± 0.58.
On the same counts, the results for GUCCAGCAAUAUUACGCAGU are -0.463 ± 0.046 and -0.161 ± 0.058.
Consider UGGGAGCAAUAUUACGUCCG, for which the “self-splicing fitness (ln)” value (30 °C) was -0.868 ± 1.4 and the “self-splicing fitness (ln)” value (37 °C) stood at 0.0657 ± 0.64.
CAGGAGCAAUAUUACGCCUC: where the note is “37 °C”, the “self-splicing fitness (ln)” value is -2.54 ± 1.1.
UCGGAGCAAUAUUACGACCG: the “self-splicing fitness (ln)” value (37 °C) amounted to 0.026 ± 0.51.
On the same count and under the same terms, then CGCUAGCAAUAUUACGGACC, with -1.29 ± 0.51; and GUAAAGCAAUAUUACGAGGG, with -0.769 ± 0.52.
In the case of CAAUAGCAAUAUUACGAGGC, the “self-splicing fitness (ln)” value is, setting by setting: (30 °C) -3.6 ± 0.33; (37 °C) -1.44 ± 0.31.
Consider ACUGAGCAAUAUUACGCCGU, for which, under “30 °C”, the “self-splicing fitness (ln)” value was -4.62 ± 1.
For the sequence CUCGAGCAAUAUUACGGCUC, the “self-splicing fitness (ln)” value reads like this: (30 °C) -4.61 ± 0.72; (37 °C) -2.25 ± 0.55.
Take CACGAGCAAUAUUACGCCCU: the “self-splicing fitness (ln)” value (37 °C) is -0.633 ± 0.67.
In the case of CAGGAGCAAUAUUACGACGA, where the note is “37 °C”, the “self-splicing fitness (ln)” value was -1.62 ± 1.1.
Regarding AAGGAGCAAUAUUACGAGAU, the “self-splicing fitness (ln)” value (30 °C) was -3.4 ± 0.63.
On the same count and under the same terms, the value for GGAAAGCAAUAUUACGUCCC was -3.68 ± 0.6.
Regarding UUUCAGCAAUAUUACGAUUC, where the note is “30 °C”, the “self-splicing fitness (ln)” value was -1.69 ± 0.91.
UUGAAGCAAUAUUACGUUAC: the “self-splicing fitness (ln)” value (30 °C) was -4.79 ± 0.58.
On to AAGUAGCAAUAUUACGGUGC, for which the “self-splicing fitness (ln)” value (30 °C) is -3.66 ± 0.53.
As for UAGGAGCAAUAUUACGGUUC, the “self-splicing fitness (ln)” value by setting is: (30 °C) -4.17 ± 0.59; (37 °C) -2.64 ± 0.75.
Regarding CAGAAGCAAUAUUACGUGGC, the “self-splicing fitness (ln)” value is -3.7 ± 0.16 (30 °C) and -2.15 ± 0.15 (37 °C).
CACGAGCAAUAUUACGACAA: the “self-splicing fitness (ln)” value (30 °C) is -4.27 ± 0.52.
For AUUGAGCAAUAUUACGGAGA, the “self-splicing fitness (ln)” value (30 °C) is -2.77 ± 1.1.
In the case of UGAGAGCAAUAUUACGGCUC, the “self-splicing fitness (ln)” value (37 °C) was -3.05 ± 0.52.
For GACGAGCAAUAUUACGACCG, the “self-splicing fitness (ln)” value was -1.21 ± 0.57 (30 °C) and -2.76 ± 1.1 (37 °C).
For the sequence GACUAGCAAUAUUACGGCCC, the “self-splicing fitness (ln)” value (30 °C) is -1.35 ± 0.74.
Consider CCUUAGCAAUAUUACGCCAC, for which the “self-splicing fitness (ln)” value was -4.2 ± 1 (30 °C) and -2.72 ± 1.1 (37 °C).
Take UCUCAGCAAUAUUACGAUCC: the “self-splicing fitness (ln)” value (30 °C) is -4.15 ± 0.59.
With CGAGAGCAAUAUUACGAGAC, for the setting “37 °C”, the “self-splicing fitness (ln)” value was -2.71 ± 0.62.
